Assay results as given in the supplement of paper PMC8728848.
The other results are listed elsewhere or left out.

Key:
Assay in all cases: glycan array binding signal (z-score within array); higher = stronger binding
Conditions in all cases: glycan notation: IUPAC condensed, linker removed
[1] = target: Gal(b1-4)GlcNAc(b1-3)Gal(b1-4)GlcNAc(b1-6)[Gal(b1-3)]GalNAc
Procedure, shortened: (§1)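 Columns mapping to the same glycan were averaged after glycan names were converted to IUPAC-condensed notation. The data come from 3228 arrays in the Consortium for Functional Glycomics database, limited to those with an available protein sequence. Binding is reported as a within-array Z-score averaged across arrays of one protein sequence and across linkers.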

[2] = target: Gal(b1-4)GlcNAc(b1-3)Gal(b1-4)[Fuc(a1-3)]GlcNAc(b1-3)Gal(b1-4)[Fuc(a1-3)]GlcNAc
Procedure, shortened: as §1

[3] = target: Gal(b1-4)GlcNAc(b1-3)GalNAc
Procedure, shortened: as §1

[4] = target: Gal(b1-4)GlcNAc(b1-3)[Fuc(a1-3)GlcNAc(b1-6)]Gal(b1-4)Glc
Procedure, shortened: as §1

[5] = target: Gal(b1-4)GlcNAc(b1-3)[Gal(b1-4)GlcNAc(b1-6)]Gal(b1-4)GlcNAc
Procedure, shortened: as §1

[6] = target: Gal(b1-4)GlcNAc(b1-3)[GlcNAc(b1-6)]Gal(b1-4)GlcNAc
Procedure, shortened: as §1

[7] = target: Gal(b1-4)GlcNAc(b1-6)Gal(b1-4)GlcNAc
Procedure, shortened: as §1

[8] = target: Gal(b1-4)GlcNAc(b1-6)GalNAc
Procedure, shortened: as §1

[9] = target: Gal(b1-4)GlcNAc(b1-6)[Gal(b1-3)]GalNAc
Procedure, shortened: as §1

[10] = target: Gal(b1-4)GlcNAc(b1-6)[Gal(b1-4)GlcNAc(b1-3)]GalNAc
Procedure, shortened: as §1

Gal(b1-4)GlcNAc6P = target: Gal(b1-4)GlcNAc6P
Procedure, shortened: as §1

Gal(b1-6)Gal = target: Gal(b1-6)Gal
Procedure, shortened: as §1

Gal3S(b1-3)GalNAc = target: Gal3S(b1-3)GalNAc
Procedure, shortened: as §1

Gal3S(b1-3)GlcNAc = target: Gal3S(b1-3)GlcNAc
Procedure, shortened: as §1

[11] = target: Gal3S(b1-3)[Fuc(a1-4)]GlcNAc
Procedure, shortened: as §1

Gal3S(b1-4)Glc = target: Gal3S(b1-4)Glc
Procedure, shortened: as §1

Gal3S(b1-4)Glc6S = target: Gal3S(b1-4)Glc6S
Procedure, shortened: as §1

Gal3S(b1-4)GlcNAc = target: Gal3S(b1-4)GlcNAc
Procedure, shortened: as §1

[12] = target: Gal3S(b1-4)[Fuc(a1-3)]Glc6S
Procedure, shortened: as §1

[13] = target: Gal3S(b1-4)[Fuc(a1-3)]GlcNAc
Procedure, shortened: as §1

[14] = target: Gal3S(b1-4)[Fuc(a1-3)]GlcNAc6S
Procedure, shortened: as §1

Gal3S4S(b1-4)GlcNAc = target: Gal3S4S(b1-4)GlcNAc
Procedure, shortened: as §1

Gal3S6S(b1-4)GlcNAc = target: Gal3S6S(b1-4)GlcNAc
Procedure, shortened: as §1

Gal3S6S(b1-4)GlcNAc6S = target: Gal3S6S(b1-4)GlcNAc6S
Procedure, shortened: as §1

Gal4S(b1-4)GlcNAc = target: Gal4S(b1-4)GlcNAc
Procedure, shortened: as §1

Gal4S6S(b1-4)GlcNAc = target: Gal4S6S(b1-4)GlcNAc
Procedure, shortened: as §1

Gal6P(b1-4)GlcNAc = target: Gal6P(b1-4)GlcNAc
Procedure, shortened: as §1

Gal6S(b1-3)GlcNAc = target: Gal6S(b1-3)GlcNAc
Procedure, shortened: as §1

Gal6S(b1-3)GlcNAc6S = target: Gal6S(b1-3)GlcNAc6S
Procedure, shortened: as §1

Gal6S(b1-4)Glc = target: Gal6S(b1-4)Glc
Procedure, shortened: as §1

Gal6S(b1-4)Glc6S = target: Gal6S(b1-4)Glc6S
Procedure, shortened: as §1

Gal6S(b1-4)GlcNAc = target: Gal6S(b1-4)GlcNAc
Procedure, shortened: as §1

Gal6S(b1-4)GlcNAc6S = target: Gal6S(b1-4)GlcNAc6S
Procedure, shortened: as §1

GalNAc(a1-3)Gal = target: GalNAc(a1-3)Gal
Procedure, shortened: as §1

GalNAc(a1-3)GalNAc = target: GalNAc(a1-3)GalNAc
Procedure, shortened: as §1

[15] = target: GalNAc(a1-3)GalNAc(b1-3)Gal(a1-4)Gal(b1-4)Glc
Procedure, shortened: as §1

[16] = target: GalNAc(a1-3)GalNAc(b1-3)Gal(a1-4)Gal(b1-4)GlcNAc
Procedure, shortened: as §1

B1: GS7807Q-bfa-507-19-507 (Bacteroides fragilis) (protein)
chain: ASCNKFDDLNTNPDAATKVTAPMLATKLILNITQQGSAKNFVYHSMLSKQIAWSENASDEQYNLFGRTDFDGYTILTNCQKMVDAANEGDKDSYAALAKFMKAYKLFYKSLEVGDIPYSDALKGEEGVQKPKYDTQKEVMRQVLEDLEEAYTLFSSGSDFDGDPIFGGDTENWKKTVVAFELKVLTHLCKKDTDADLKVKERFARLVSSGSLMTSNADNFQLVYSNKAGQLYPFYYTQNKHSDYLMMSSVIIDNLKKFNDYRMFYYASPAKAQTDKGIKDSEWDAYLSIDPSDSYSNISVLYGKGEFCLANLRYTRVPEGEPLMRLSYAEQNFILAEGAVRGWISEDASTYYKKGIEASMNFIADNTPDKEEYTHGRTITQEYIQEYLAQPVIQLSGDKEKDLEMILLQRYLASFLQHPYDAYYDYRRTGYPVLPINPSTNLNTEKNKIPTRWMYPEAEFSYNPDNANEAVQRQYNGSDDVNKLMWILQ
glycan array binding signal (z-score) [1]: 0.121 | glycan array binding signal (z-score) [2]: -0.174 | glycan array binding signal (z-score) [3]: -1.35 | glycan array binding signal (z-score) [4]: -0.659 | glycan array binding signal (z-score) [5]: -0.507 | glycan array binding signal (z-score) [6]: -0.795 | glycan array binding signal (z-score) [7]: -0.977 | glycan array binding signal (z-score) [8]: 1.31 | glycan array binding signal (z-score) [9]: -0.708 | glycan array binding signal (z-score) [10]: -0.716 | glycan array binding signal (z-score) (Gal(b1-4)GlcNAc6P): -0.394 | glycan array binding signal (z-score) (Gal(b1-6)Gal): -0.117 | glycan array binding signal (z-score) (Gal3S(b1-3)GalNAc): -0.969 | glycan array binding signal (z-score) (Gal3S(b1-3)GlcNAc): 0.3 | glycan array binding signal (z-score) [11]: -0.673 | glycan array binding signal (z-score) (Gal3S(b1-4)Glc): -0.474 | glycan array binding signal (z-score) (Gal3S(b1-4)Glc6S): -0.973 | glycan array binding signal (z-score) (Gal3S(b1-4)GlcNAc): -0.083 | glycan array binding signal (z-score) [12]: 2.33 | glycan array binding signal (z-score) [13]: 1.08 | glycan array binding signal (z-score) [14]: 1.06 | glycan array binding signal (z-score) (Gal3S4S(b1-4)GlcNAc): -0.412 | glycan array binding signal (z-score) (Gal3S6S(b1-4)GlcNAc): -0.672 | glycan array binding signal (z-score) (Gal3S6S(b1-4)GlcNAc6S): -0.487 | glycan array binding signal (z-score) (Gal4S(b1-4)GlcNAc): -0.228 | glycan array binding signal (z-score) (Gal4S6S(b1-4)GlcNAc): -0.168 | glycan array binding signal (z-score) (Gal6P(b1-4)GlcNAc): -0.571 | glycan array binding signal (z-score) (Gal6S(b1-3)GlcNAc): -0.524 | glycan array binding signal (z-score) (Gal6S(b1-3)GlcNAc6S): 0.954 | glycan array binding signal (z-score) (Gal6S(b1-4)Glc): -0.53 | glycan array binding signal (z-score) (Gal6S(b1-4)Glc6S): -0.326 | glycan array binding signal (z-score) (Gal6S(b1-4)GlcNAc): 1.16 | glycan array binding signal (z-score) (Gal6S(b1-4)GlcNAc6S): -0.605 | glycan array binding signal (z-score) (GalNAc(a1-3)Gal): 0.879 | glycan array binding signal (z-score) (GalNAc(a1-3)GalNAc): -0.06 | glycan array binding signal (z-score) [15]: -0.545 | glycan array binding signal (z-score) [16]: -0.585
